Reference: the supplement of paper PMC10849652
This is one part of the list.

Protein sequences, listed by entry. Tags and fused reporters are not part of them. Lines headed by an entry give the natural chain unless they say otherwise; changes in a name come on top.
UniProt Q04837: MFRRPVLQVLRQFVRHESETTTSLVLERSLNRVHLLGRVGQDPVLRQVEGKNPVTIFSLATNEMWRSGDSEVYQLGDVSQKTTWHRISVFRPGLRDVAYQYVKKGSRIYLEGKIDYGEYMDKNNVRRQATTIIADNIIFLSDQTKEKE
UniProt P43307: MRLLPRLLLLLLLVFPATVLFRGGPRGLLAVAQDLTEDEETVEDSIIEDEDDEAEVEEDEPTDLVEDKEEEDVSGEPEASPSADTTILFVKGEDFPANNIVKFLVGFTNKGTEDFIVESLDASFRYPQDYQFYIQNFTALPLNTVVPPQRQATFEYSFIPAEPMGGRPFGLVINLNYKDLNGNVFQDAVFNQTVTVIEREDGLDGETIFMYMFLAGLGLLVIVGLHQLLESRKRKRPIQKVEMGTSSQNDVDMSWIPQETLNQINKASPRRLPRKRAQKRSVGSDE
UniProt Q15831: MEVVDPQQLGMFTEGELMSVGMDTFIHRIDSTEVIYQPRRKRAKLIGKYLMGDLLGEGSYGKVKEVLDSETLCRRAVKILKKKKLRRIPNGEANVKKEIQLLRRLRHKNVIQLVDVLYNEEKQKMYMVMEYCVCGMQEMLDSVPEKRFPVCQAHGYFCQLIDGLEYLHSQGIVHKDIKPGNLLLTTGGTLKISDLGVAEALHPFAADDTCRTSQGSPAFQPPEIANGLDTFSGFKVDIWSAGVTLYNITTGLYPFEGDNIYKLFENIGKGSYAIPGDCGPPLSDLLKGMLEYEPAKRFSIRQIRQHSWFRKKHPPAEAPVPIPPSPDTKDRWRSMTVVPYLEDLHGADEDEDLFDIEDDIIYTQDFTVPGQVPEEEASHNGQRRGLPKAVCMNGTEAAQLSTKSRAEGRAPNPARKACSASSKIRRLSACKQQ
UniProt P49458: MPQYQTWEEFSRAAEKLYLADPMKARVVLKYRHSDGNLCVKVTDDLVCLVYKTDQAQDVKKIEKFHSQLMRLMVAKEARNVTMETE
UniProt O15270: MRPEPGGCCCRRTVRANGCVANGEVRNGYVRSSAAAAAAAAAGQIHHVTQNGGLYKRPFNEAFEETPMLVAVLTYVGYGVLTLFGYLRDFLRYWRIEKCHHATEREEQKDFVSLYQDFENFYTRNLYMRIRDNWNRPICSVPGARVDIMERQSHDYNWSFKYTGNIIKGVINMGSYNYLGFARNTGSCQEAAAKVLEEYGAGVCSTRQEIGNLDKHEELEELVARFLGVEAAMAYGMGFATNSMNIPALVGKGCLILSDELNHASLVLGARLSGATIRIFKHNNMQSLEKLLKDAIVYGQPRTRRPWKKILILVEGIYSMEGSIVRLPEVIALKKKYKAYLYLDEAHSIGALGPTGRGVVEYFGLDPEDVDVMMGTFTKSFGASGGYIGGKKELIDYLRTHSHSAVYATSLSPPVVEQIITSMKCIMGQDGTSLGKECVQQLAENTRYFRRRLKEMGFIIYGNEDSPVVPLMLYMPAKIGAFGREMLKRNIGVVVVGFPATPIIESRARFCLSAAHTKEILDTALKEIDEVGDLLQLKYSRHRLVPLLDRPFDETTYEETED
UniProt P10124: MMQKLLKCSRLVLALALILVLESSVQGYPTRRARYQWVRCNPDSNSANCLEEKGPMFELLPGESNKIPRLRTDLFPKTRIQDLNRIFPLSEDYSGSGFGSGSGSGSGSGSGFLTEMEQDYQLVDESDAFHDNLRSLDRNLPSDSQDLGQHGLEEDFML
UniProt Q9UQ90: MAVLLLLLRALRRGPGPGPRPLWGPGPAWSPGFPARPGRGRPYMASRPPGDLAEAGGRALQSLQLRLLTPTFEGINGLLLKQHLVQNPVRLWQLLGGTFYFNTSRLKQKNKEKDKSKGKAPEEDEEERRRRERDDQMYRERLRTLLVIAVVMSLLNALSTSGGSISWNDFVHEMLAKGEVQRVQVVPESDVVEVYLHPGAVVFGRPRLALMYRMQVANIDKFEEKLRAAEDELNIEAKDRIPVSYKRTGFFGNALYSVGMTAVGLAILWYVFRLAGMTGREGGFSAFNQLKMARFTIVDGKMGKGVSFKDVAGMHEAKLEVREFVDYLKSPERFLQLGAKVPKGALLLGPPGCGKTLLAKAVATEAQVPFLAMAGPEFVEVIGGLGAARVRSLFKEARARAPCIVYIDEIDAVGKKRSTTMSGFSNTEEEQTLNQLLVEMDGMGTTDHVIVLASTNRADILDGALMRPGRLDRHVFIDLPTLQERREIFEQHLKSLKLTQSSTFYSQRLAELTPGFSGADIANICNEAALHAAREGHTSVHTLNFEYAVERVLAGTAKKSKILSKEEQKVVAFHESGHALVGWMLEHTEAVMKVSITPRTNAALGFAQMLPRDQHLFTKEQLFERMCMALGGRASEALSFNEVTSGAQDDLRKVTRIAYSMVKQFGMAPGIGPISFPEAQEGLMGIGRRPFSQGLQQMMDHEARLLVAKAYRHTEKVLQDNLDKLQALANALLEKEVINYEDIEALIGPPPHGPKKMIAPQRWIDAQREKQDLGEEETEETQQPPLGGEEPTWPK
UniProt P09132: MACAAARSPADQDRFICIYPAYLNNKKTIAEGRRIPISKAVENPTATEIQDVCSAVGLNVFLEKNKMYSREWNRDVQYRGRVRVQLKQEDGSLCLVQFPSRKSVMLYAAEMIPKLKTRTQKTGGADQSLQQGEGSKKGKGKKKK
UniProt O95793: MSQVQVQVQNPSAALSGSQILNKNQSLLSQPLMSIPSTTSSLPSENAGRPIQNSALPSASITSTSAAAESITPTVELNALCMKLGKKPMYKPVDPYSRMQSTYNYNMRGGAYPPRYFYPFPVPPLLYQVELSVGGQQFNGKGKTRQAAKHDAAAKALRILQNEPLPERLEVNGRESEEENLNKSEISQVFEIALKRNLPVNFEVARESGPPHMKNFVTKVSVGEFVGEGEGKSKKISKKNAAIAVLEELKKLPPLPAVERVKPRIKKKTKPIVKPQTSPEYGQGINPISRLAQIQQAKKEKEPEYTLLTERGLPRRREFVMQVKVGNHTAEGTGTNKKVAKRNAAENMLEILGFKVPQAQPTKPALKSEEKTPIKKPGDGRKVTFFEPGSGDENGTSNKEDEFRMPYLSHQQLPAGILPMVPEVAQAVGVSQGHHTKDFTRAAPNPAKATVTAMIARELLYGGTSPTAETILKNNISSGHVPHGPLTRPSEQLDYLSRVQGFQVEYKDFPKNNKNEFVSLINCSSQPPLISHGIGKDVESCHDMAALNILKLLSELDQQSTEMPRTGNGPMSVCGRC
UniProt P37108: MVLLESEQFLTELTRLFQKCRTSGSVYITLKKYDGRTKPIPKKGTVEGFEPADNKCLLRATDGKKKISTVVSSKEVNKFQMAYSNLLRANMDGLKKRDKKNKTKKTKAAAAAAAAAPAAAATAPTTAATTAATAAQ
UniProt Q13243: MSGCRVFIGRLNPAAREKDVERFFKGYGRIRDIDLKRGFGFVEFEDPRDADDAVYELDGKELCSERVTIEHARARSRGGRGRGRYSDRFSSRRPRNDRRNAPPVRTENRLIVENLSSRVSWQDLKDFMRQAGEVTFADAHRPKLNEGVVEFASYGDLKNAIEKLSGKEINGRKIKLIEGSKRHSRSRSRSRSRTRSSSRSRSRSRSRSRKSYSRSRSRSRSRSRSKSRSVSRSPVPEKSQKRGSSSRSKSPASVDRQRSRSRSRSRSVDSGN
UniProt P09486: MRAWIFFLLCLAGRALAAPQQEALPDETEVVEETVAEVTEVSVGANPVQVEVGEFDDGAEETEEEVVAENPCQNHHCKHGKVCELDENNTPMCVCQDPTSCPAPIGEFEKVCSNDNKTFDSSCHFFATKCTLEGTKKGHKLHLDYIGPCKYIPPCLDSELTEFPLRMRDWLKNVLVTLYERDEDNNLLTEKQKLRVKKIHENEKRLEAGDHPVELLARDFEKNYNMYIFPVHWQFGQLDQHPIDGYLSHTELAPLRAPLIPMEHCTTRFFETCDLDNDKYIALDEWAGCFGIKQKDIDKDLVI
UniProt Q92783: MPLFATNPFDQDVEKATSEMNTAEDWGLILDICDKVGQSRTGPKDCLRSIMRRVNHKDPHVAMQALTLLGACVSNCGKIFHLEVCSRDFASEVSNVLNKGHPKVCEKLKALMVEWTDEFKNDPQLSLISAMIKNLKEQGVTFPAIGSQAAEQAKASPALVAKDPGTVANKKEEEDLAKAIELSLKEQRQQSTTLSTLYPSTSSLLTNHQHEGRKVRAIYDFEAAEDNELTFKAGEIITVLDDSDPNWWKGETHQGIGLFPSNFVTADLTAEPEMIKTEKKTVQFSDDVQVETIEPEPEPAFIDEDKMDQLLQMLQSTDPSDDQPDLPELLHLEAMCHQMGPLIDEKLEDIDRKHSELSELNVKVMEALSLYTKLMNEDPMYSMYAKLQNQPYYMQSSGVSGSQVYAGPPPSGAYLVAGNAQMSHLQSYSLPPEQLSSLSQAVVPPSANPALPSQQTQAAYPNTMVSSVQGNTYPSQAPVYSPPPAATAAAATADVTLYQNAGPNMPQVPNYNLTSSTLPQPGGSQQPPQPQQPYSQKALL
UniProt O43805: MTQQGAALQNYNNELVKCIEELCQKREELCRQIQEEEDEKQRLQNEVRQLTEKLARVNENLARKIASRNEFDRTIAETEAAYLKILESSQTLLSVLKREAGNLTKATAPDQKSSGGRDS
UniProt Q9H2V7: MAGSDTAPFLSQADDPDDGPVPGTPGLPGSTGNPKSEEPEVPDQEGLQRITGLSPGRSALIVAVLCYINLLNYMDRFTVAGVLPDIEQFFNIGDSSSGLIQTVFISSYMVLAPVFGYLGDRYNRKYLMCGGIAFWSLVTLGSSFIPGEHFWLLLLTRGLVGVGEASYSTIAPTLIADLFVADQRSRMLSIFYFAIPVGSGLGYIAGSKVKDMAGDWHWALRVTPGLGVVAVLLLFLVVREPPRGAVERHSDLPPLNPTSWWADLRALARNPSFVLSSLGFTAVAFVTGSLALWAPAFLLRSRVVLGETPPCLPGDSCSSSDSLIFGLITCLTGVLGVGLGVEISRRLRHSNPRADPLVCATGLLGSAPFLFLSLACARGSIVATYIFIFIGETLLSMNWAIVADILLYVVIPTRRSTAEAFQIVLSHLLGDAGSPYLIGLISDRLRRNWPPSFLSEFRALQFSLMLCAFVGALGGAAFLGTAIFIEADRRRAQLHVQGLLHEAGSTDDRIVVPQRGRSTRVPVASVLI
UniProt Q5W111: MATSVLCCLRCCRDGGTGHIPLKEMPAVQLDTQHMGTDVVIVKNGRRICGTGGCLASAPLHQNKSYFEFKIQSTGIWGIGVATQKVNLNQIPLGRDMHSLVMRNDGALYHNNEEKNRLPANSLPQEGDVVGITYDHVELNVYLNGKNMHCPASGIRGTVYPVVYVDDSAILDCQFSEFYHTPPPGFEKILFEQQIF
UniProt Q9NRC1: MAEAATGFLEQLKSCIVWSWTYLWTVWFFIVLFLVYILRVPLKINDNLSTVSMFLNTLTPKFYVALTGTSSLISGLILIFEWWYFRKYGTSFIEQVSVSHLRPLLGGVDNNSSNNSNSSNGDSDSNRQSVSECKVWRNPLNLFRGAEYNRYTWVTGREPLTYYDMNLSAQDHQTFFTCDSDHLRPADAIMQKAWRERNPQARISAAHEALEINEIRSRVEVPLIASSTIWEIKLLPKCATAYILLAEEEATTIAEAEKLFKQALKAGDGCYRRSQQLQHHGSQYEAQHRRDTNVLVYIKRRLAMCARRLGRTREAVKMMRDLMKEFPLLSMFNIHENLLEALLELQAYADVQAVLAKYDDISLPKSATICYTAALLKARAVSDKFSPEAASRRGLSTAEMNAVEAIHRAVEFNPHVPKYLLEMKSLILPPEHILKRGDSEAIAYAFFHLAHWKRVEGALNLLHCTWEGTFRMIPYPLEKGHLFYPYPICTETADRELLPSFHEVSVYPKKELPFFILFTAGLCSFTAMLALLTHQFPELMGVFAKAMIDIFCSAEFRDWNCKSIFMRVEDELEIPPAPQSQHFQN
UniProt Q9Y657, whole entry, looked up: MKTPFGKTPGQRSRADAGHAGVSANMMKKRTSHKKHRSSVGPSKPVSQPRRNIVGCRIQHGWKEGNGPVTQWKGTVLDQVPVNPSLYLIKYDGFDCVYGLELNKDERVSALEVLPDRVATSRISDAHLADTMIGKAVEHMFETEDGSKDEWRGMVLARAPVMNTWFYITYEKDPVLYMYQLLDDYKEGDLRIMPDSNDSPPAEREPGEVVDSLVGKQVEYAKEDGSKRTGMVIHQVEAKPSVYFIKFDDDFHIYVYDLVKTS
UniProt P50502: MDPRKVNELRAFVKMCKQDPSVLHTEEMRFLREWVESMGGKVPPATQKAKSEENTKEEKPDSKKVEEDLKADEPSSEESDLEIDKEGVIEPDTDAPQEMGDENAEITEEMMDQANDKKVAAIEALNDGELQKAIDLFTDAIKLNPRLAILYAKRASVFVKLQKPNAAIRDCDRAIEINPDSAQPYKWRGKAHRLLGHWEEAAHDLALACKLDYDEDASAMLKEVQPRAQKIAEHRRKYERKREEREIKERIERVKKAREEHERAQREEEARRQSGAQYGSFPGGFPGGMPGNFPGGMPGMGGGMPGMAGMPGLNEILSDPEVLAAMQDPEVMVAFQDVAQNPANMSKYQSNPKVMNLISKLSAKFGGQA

These targets were tested with Cc1cc(Nc2cc(CN3CCOCC3)c3nc(C)c(Cc4ccc(Cl)cc4F)n3n2)n[nH]1 [gandotinib] (assay: log2 fold change, soluble protein after heating vs DMSO (PISA); higher = thermal stabilisation; K562 cells, 10 uM, 30 min; active = over 0.2 and 3.5 SD of the protein, either way, in both replicates (recomputed)).
In short: (§1)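 Quantification of soluble protein used TMTpro 16plex LC-MS/MS, with channel sums equalised. Samples were the supernatant after 21,000xg for 90 min of pooled aliquots from K562 cells (2×10^6 cells/mL) treated with 10 μM compound for 30 min, heated for 3 min over 48°C-58°C, and extracted in PBS with 0.5% NP-40 at 4°C. Values, from duplicates, describe thermal stability against control samples on a log2 fold-change scale.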

log2 fold change, inactive:
SSBP1 (UniProt Q04837) 0.032
STAMBP (UniProt O95630) -0.056
SPC25 (UniProt Q9HBM1) -0.028
SRRM1 (UniProt Q8IYB3) 0.156
SSR1 (UniProt P43307) -0.002
SRRT (UniProt Q9BXP5) -0.116
STK11 (UniProt Q15831) 0.021
SPTA1 (UniProt P02549) 0.06
SPTAN1 isoform 2 (UniProt Q13813) -0.017
SRP9 (UniProt P49458) 0.197
SPN (UniProt P16150) 0.029
SPTLC2 (UniProt O15270) 0.055
SRGN (UniProt P10124) 0.17
SRPK1 (UniProt Q96SB4) 0.347
SPG7 (UniProt Q9UQ90) -0.068
SRP19 (UniProt P09132) 0.033
SPRY4 (UniProt Q9C004) -0.064
SPC24 (UniProt Q8NBT2) -0.015
STAU1 (UniProt O95793) 0.333
SRP14 (UniProt P37108) 0.373
SRSF5 (UniProt Q13243) 0.254
SRM (UniProt P19623) 0.034
STIP1 isoform 2 (UniProt P31948) -0.038
SPATA5 (UniProt Q8NB90) 0.011
STAG2 (UniProt Q8N3U4) -0.032
SQLE (UniProt Q14534) 0.121
SPARC (UniProt P09486) 0.076
SPTB isoform 2 (UniProt P11277) 0.008
STAM (UniProt Q92783) -0.009
SSNA1 (UniProt O43805) -0.157
SPNS1 (UniProt Q9H2V7) 0.082
SPCS3 (UniProt P61009) -0.013
SPRYD7 (UniProt Q5W111) -0.064
ST7 (UniProt Q9NRC1) -0.112
SPTBN2 (UniProt O15020) 0.012
SPIN1 (UniProt Q9Y657) -0.022
SPCS1, A0A5F9YFS9 -0.102
ST13 (UniProt P50502) -0.066

What follows are targets tested with Cc1cc(Nc2cc(N3CCN(C)CC3)nc(Sc3ccc(NC(=O)C4CC4)cc3)n2)n[nH]1 [tozasertib] in the same assay as above.
In short: as §1

log2 fold change, inactive:
SSBP1 (UniProt Q04837) 0.022
STAMBP (UniProt O95630) 0.105
SPC25 (UniProt Q9HBM1) 0.071
SRRM1 (UniProt Q8IYB3) -0.03
SSR1 (UniProt P43307) -0.013
SRRT (UniProt Q9BXP5) 0.052
STK11 (UniProt Q15831) 0
SPTA1 (UniProt P02549) 0.139
SPTAN1 isoform 2 (UniProt Q13813) 0.023
SRP9 (UniProt P49458) 0.016
SPN (UniProt P16150) -0.05
SPTLC2 (UniProt O15270) -0.009
SRGN (UniProt P10124) 0.024
SRPK1 (UniProt Q96SB4) 0.005
SPG7 (UniProt Q9UQ90) -0.001
SRP19 (UniProt P09132) 0.054
SPRY4 (UniProt Q9C004) -0.015
SPC24 (UniProt Q8NBT2) 0.181
STAU1 (UniProt O95793) 0.035
SRP14 (UniProt P37108) 0.025
SRSF5 (UniProt Q13243) 0.109
SRM (UniProt P19623) -0.023
STIP1 isoform 2 (UniProt P31948) 0.009
SPATA5 (UniProt Q8NB90) -0.014
STAG2 (UniProt Q8N3U4) 0.023
SQLE (UniProt Q14534) -0.006
SPARC (UniProt P09486) -0.089
SPTB isoform 2 (UniProt P11277) 0.019
STAM (UniProt Q92783) 0.028
SSNA1 (UniProt O43805) 0.017
SPNS1 (UniProt Q9H2V7) -0.071
SPCS3 (UniProt P61009) -0.02
SPRYD7 (UniProt Q5W111) -0.11
ST7 (UniProt Q9NRC1) -0.041
SPTBN2 (UniProt O15020) 0.082
SPIN1 (UniProt Q9Y657) 0.032
SPCS1, A0A5F9YFS9 0.045
ST13 (UniProt P50502) 0.033
